Assay results taken from publication PMC9554868.
These are yes or no findings as the source states them, for the method shown. In cells and extracts the contact can be indirect. A result given as binding can be weak or reduced; the word gives no strength.

Protein sequences, listed by entry. Tags and fused reporters are not part of them. Lines headed by an entry give the natural chain unless they say otherwise; changes in a name come on top.
UniProt Q9BY78: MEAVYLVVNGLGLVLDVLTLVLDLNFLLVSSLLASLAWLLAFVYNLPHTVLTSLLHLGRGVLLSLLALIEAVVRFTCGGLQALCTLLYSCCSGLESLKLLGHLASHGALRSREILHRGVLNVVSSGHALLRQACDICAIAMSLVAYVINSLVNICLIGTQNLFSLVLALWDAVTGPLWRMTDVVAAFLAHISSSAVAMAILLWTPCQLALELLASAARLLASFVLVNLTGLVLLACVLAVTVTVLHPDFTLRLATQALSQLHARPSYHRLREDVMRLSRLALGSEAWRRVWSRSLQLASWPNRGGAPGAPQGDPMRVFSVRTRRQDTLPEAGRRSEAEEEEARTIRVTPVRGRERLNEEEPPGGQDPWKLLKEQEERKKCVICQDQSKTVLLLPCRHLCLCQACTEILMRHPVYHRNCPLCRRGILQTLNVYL
UniProt Q05320: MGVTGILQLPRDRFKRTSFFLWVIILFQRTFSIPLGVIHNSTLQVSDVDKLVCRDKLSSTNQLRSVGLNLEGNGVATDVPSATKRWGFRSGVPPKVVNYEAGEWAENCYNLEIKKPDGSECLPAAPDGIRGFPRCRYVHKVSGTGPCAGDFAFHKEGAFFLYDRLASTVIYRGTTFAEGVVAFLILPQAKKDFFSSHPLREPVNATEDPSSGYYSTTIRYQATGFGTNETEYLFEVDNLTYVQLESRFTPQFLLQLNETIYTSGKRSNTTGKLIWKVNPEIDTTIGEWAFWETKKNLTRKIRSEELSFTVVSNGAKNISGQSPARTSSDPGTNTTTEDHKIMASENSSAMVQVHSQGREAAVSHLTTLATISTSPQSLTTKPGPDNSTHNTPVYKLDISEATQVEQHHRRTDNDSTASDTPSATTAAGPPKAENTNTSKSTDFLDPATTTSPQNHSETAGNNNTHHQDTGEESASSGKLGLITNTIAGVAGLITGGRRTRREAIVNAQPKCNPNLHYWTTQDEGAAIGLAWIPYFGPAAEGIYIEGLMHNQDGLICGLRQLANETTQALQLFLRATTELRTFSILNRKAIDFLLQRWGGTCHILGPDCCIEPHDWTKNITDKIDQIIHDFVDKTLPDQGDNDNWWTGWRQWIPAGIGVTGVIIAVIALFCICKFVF

Target: RING finger protein 26 (RNF26), wild type, Myc-FLAG-tagged (UniProt Q9BY78)
Experiment: co-IP

“EBOV-GP1,2 with a HiBiT tag (from UniProt Q05320)” was tested, and the binding was “binds”.
